The record followed here is PubChem BioAssay AID2685 (National Center for Advancing Translational Sciences (NCATS), 2010).

Some of the results follow. Further columns of the screen follow, without active or inactive calls. Most of these compounds were active or inconclusive in the main read-out, so they are no random draw. Potencies come from curve fits of mixed quality, noted in brackets.

The assay in a line: qHTS Assay for Lipid Storage Modulators in Drosophila S3 Cells.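 On cell number change: cells counted by Cell Tracker Red CMTPX staining in the red channel.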 Particulars: BODIPY lipid droplet fluorescence, 18-24 h; for cell number change: measured here: cell count max response, cells fed with added oleic acid. The essentials:
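Drosophila S3 cells got compounds at several concentrations plus oleic acid (400 uM solution). Laser-scanning cytometry with 488 nm excitation read lipid droplets at 500-530 nm and cells at 575-640 nm. Percent activity was relative to 20 uM Triacsin C.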

Where [1] appears, read: measured here: lipid fluorescence (Fed channel) AC50, cells fed with added oleic acid.
Where [2] appears, read: measured here: cell number channel AC50, cells fed with added oleic acid.

In the case of `CCC(C)n1c(SCc2ccccc2)nc2ccsc2c1=O` (stereo unspecified), the cell number change was 5.3%. Further, under setting [1], the AC50 (in general, the concentration at which the activity in the assay is half-maximal) was 9.2 µM [rising, partial curve].
For the molecule `O=C(O)c1ccc(N/N=C/c2cccc(F)c2)cc1`, the cell number change was 14.2%. In addition, under setting [1], the half-maximal activity concentration (AC50) was 5.8 µM [rising, partial curve].
In the case of `Cc1cc(NC(=O)c2cc(C(C)C)on2)nn1Cc1ccc(Cl)cc1`, the cell number change came out at 14%. For the same molecule, the concentration at half-maximal activity (AC50) under setting [1] is 11.6 µM [falling, partial curve, poor fit].
For the molecule `Cc1nnc(SCc2nnc(-c3cccs3)o2)s1`, the cell number change is 4.3%. Also, under setting [1], the AC50 was 0.00651 µM [falling, full curve, poor fit].
Take `CCCOc1ncnc2c1[nH]c1ccccc12`: the cell number change is -34.2%. For the same molecule, under setting [2], the AC50 is 8.2 µM [falling, partial curve]. In addition, the AC50 under setting [1] is 10.3 µM [falling, partial curve].
As to `CCOC(=O)N1CCN(C(=O)c2cccc(N3C(=O)NC4CC3(C)Oc3ccccc34)c2)CC1` (stereo unspecified), the cell number change was -13%.
Take `COC(=O)CN1C(c2ccccc2)=Nc2ccc(Cl)cc2C1c1ccccc1` (stereo unspecified): the cell number change came out at 13.2%.
For `COc1cc(NC(=O)Cc2nn(C)c(=O)c3ccccc23)cc(OC)c1`, the cell number change is -33.9%. Under setting [2], the half-maximal activity concentration (AC50) is 5.8 µM [falling, partial curve]. The AC50 under setting [1] was 16.4 µM [falling, single point].
In the case of `O=C(NC1=NCCS1)c1ccc([N+](=O)[O-])cc1Cl`, the cell number change amounted to 41.1%. The concentration at half-maximal activity (AC50) under setting [2] is 13 µM [rising, single point].
For `C#CCSc1nnnn1-c1ccc(Br)c(C)c1`, the cell number change was -45.8%. Moreover, under setting [2], the AC50 is 14.6 µM [falling, partial curve, poor fit].
On to `CN(CCc1ccccn1)C(=O)c1cccnc1Oc1ccc(Cl)cc1`, for which the cell number change came to 19.6%. Also, the concentration at half-maximal activity (AC50) under setting [1] was 13 µM [rising, partial curve, poor fit].
For `COc1ccc2cc3cc(C(=O)NCC4CCCO4)oc3nc2c1` (stereo unspecified), the concentration at half-maximal activity (AC50) under setting [1] was 0.58 µM [rising, single point].
On to `COCCn1c(C)cc(C(=O)CSc2nnc(C3CC3)n2C2CC2)c1C`, for which the cell number change was 4.14%. Moreover, under setting [1], the half-maximal activity concentration (AC50) is 0.116 µM [rising, full curve, poor fit].
For `CSc1nc(-c2ccc(C)cc2)[nH]c1S(=O)(=O)c1ccccc1`, the cell number change is -15.6%.
As for `N=C1C(c2ccccc2)=C(O)CN1c1cccc(S(N)(=O)=O)c1`, the cell number change is -14.6%. For the same molecule, the AC50 under setting [1] was 0.184 µM [falling, full curve, poor fit].
Take `CCOc1cccc(/C=C2/NC(=O)N(CC(=O)Nc3cccc(C)c3)C2=O)c1O`: the cell number change came to 42.5%. Also, the AC50 under setting [2] was 6.51 µM [falling, single point]. Also, the concentration at half-maximal activity (AC50) under setting [1] is 6.51 µM [falling, single point].
On to `COc1cccc(C(=O)NC(C)c2ccc(-c3ccccc3)cc2)c1OC` (stereo unspecified), for which the cell number change was found to be 72.2%. Further, the half-maximal activity concentration (AC50) under setting [2] is 29.1 µM [rising, single point].
`Cc1c(C(=O)NC(C)c2ccncc2)oc2ccccc12` (stereo unspecified): the cell number change was 111%. For the same molecule, the half-maximal activity concentration (AC50) under setting [2] was 20.6 µM [rising, single point].
Regarding `CN(c1cccc(NC(=O)c2ccccc2N(Cc2ccccc2)S(C)(=O)=O)c1)S(C)(=O)=O`, the cell number change is -9.85%. Also, the half-maximal activity concentration (AC50) under setting [1] was 16.4 µM [falling, single point].
Regarding `CC1CCCN(CCCNC(=O)C2CC(=O)N(CCc3ccccc3)C2)C1` (stereo unspecified), the cell number change is -21.9%.
For the molecule `CC(NS(=O)(=O)c1ccc(Br)cc1)C(=O)NC1CCCCCC1` (stereo unspecified), the cell number change is 12.2%.
In the case of `COc1ccc(-c2[nH]ncc2-c2ccc3c(c2)OCCO3)c(O)c1`, the cell number change was -42.1%. For the same molecule, the AC50 under setting [2] was 29.1 µM [falling, single point]. Moreover, the AC50 under setting [1] was 0.00517 µM [rising, full curve, poor fit].
For the molecule `CSc1nnc(C)c(=O)n1COC(=O)COc1ccccc1`, the AC50 under setting [2] is 0.651 µM [rising, partial curve, poor fit].
`CCn1ncc(Br)c1C(=O)Nc1ccc(C(=O)OC(C)C)cc1`: the cell number change is -0.679%. Also, the concentration at half-maximal activity (AC50) under setting [1] was 13 µM [rising, partial curve].
On to `CCN(CC(=O)NC1CCS(=O)(=O)C1)c1nc(-c2cccnc2)nc2ccccc12` (stereo unspecified), for which the cell number change is -20.3%. Moreover, the AC50 under setting [1] is 4.61 µM [falling, full curve, poor fit].
As for `CCCCOc1ncnc2c1[nH]c1ccccc12`, the cell number change is -34.2%. Besides, under setting [2], the half-maximal activity concentration (AC50) was 6.51 µM [falling, partial curve]. Also, under setting [1], the AC50 is 0.366 µM [rising, partial curve].
For `COCCn1c(=O)[nH]c2cc(C(=O)Nc3nnc(C)s3)ccc21`, the cell number change stood at 3.97%. In addition, under setting [1], the concentration at half-maximal activity (AC50) is 0.82 µM [rising, full curve, poor fit].
In the case of `COc1ccccc1N/C(=N/S(=O)(=O)c1ccc(Cl)cc1)c1ccccc1`, the cell number change worked out at 76%. In addition, the half-maximal activity concentration (AC50) under setting [2] is 3.66 µM [rising, partial curve]. Besides, under setting [1], the AC50 is 3.26 µM [rising, partial curve].
For the molecule `CN(CC(=O)Nc1ccc(F)cc1)C(=O)CSc1ncccn1`, the cell number change is -4.42%. Moreover, under setting [2], the AC50 was 4.61 µM [falling, single point]. In addition, the AC50 under setting [1] is 8.2 µM [falling, partial curve].
With `COc1ccc(-c2cnc(SCC(=O)Nc3cc(C)on3)n2Cc2ccco2)cc1`, the cell number change is -1.2%. Under setting [1], the concentration at half-maximal activity (AC50) was 11.6 µM [rising, single point].
For `CCn1c(SCC(=O)Nc2ccccc2)nc2nc3c(cc2c1=O)COC(C)(C)C3`, the concentration at half-maximal activity (AC50) under setting [2] was 0.461 µM [rising, partial curve, poor fit].
As for `COc1ccc(NC(=O)CSc2nnc(Cc3cccn3C)n2-c2ccc(F)cc2)cc1`, the cell number change was 5.82%.
`Cc1cnc(C(=O)Nc2ccc(S(=O)(=O)N(C(C)C)C(C)C)cc2)cn1`: the cell number change worked out at 12.4%. Also, the concentration at half-maximal activity (AC50) under setting [1] is 20.6 µM [falling, partial curve].
For the molecule `O=C(NNC(=O)c1ccc(-c2ccccc2)cc1)Nc1ccccc1F`, the cell number change turned out to be 30.2%. Moreover, the AC50 under setting [2] was 0.259 µM [rising, full curve, poor fit].
Take `CN1CC(=O)N(CC(=O)Nc2ccc(N3CCOCC3)cc2)C1=O`: the cell number change is 13.8%. Also, the AC50 under setting [1] was 0.0326 µM [rising, full curve, poor fit].
Turning to `Cc1[nH]c2ccccc2c1N=Nc1c(C)n(C)n(-c2ccccc2)c1=O`, the cell number change was -58.7%. Besides, the AC50 under setting [1] is 20.6 µM [falling, single point].
As to `COCCCNC(=O)c1ccc2c3c(onc13)-c1ccccc1C2=O`, the cell number change is -68%. In addition, under setting [2], the AC50 was 29.1 µM [falling, single point]. Under setting [1], the half-maximal activity concentration (AC50) is 16.4 µM [falling, single point].
Regarding `N#C/C(=C\c1cc(Cl)cc(Cl)c1O)C(=O)NC1CCCCC1`, the cell number change was 147%. The AC50 under setting [2] is 16.4 µM [rising, partial curve]. The concentration at half-maximal activity (AC50) under setting [1] is 20.6 µM [rising, partial curve].
